This passage reports binding results from PMC12140318.

Protein sequences, listed by entry. Tags and fused reporters are not part of them. Lines headed by an entry give the natural chain unless they say otherwise; changes in a name come on top.
UniProt P06702: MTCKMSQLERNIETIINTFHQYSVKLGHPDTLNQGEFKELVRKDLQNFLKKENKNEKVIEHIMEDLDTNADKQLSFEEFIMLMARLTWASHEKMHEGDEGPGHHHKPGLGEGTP
UniProt P45973: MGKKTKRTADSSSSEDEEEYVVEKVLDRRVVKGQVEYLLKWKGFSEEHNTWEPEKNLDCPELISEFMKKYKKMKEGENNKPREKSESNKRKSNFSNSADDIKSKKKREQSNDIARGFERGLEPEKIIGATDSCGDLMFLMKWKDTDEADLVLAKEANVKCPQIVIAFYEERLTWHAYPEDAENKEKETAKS

Results are given in words; binding and its absence hold for the method and conditions named. In cells and extracts the contact can be indirect. Binding can be weak; no strength is given.

The target of this test is full-length S100A9 in the nucleus (pDC315-3NLS-S100A9-3NLS-3Flag) (human) (UniProt P06702). In words: co-IP; 500 µg protein of hAFs with or without nuclear S100A9 or T113D mutant S100A9 overexpression in IP lysis buffer; Flag antibody-coupled beads, or antibodies against Flag, S100A9, CBX5 or MBD3 with protein A agarose, overnight at 4 °C; pre-immune rabbit IgG as negative control; Western blotting.

As for “CBX5 (Chromobox protein homolog 5) (from UniProt P45973 1-191)”, the binding entry is reported as “binds”.
